These are yes or no findings as the source states them, for the method shown. Binding seen in cells or lysates may run through a third protein.
What was measured:
[1] = biological target: CD11b (mouse (endogenous in Raw264.7)) (UniProt P05555); assay: co-IP; precipitation with monoclonal CD11b antibody from 5 mg/mL extracts of Raw264.7 cells (SP-R210 isoforms: result in control cells; TLR-2 blot of the same panel); 50 mM Tris-HCl pH 8.0, 150 mM NaCl, 1% NP-40; protein G beads, 4°C; Western blot
[2] = biological target: SP-R210L, long isoform of the surfactant protein A receptor SP-R210 (Myo18A) (mouse (endogenous in Raw264.7)) (UniProt Q9JMH9); assay: co-IP; precipitation with affinity purified polyclonal anti-SP-R210 (recognises SP-R210L and SP-R210S) from 5 mg/mL extracts of control and SP-R210L(DN) Raw264.7 cells; lysis buffer 50 mM Tris-HCl pH 8.0, 150 mM NaCl, 1% NP-40; protein G beads, 4°C; Western blot

Protein sequences, listed by entry. Tags and fused reporters are not part of them. Lines headed by an entry give the natural chain unless they say otherwise; changes in a name come on top. Residues count along the entry.
UniProt P05555, residues 17-1153: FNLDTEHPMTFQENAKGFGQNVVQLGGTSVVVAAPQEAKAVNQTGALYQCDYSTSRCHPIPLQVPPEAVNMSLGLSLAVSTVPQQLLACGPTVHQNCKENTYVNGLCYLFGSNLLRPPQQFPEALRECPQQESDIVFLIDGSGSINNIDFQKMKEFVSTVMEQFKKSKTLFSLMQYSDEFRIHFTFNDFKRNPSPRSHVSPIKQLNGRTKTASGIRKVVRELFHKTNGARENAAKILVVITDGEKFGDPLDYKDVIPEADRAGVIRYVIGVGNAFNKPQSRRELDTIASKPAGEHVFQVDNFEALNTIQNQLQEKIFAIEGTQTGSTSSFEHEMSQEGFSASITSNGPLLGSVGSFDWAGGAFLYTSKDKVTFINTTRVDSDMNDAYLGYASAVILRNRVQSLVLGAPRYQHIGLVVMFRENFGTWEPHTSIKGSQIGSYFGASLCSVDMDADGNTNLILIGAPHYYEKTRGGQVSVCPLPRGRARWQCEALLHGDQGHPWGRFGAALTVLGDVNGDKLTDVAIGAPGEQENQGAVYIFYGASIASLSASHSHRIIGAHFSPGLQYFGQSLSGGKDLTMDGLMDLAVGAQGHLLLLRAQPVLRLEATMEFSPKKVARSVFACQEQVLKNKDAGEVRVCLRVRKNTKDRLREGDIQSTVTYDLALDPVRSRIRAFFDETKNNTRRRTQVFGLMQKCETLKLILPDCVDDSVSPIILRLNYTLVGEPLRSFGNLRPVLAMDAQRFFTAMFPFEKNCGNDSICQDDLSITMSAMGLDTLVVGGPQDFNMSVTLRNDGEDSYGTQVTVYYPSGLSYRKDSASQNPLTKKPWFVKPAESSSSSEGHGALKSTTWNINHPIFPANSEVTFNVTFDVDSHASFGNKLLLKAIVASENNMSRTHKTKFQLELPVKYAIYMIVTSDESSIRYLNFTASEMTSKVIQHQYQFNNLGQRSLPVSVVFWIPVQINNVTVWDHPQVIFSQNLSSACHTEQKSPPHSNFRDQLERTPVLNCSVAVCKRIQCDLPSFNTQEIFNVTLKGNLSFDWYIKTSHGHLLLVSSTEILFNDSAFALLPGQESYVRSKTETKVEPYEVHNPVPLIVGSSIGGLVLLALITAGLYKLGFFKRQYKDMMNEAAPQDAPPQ
UniProt Q9JMH9: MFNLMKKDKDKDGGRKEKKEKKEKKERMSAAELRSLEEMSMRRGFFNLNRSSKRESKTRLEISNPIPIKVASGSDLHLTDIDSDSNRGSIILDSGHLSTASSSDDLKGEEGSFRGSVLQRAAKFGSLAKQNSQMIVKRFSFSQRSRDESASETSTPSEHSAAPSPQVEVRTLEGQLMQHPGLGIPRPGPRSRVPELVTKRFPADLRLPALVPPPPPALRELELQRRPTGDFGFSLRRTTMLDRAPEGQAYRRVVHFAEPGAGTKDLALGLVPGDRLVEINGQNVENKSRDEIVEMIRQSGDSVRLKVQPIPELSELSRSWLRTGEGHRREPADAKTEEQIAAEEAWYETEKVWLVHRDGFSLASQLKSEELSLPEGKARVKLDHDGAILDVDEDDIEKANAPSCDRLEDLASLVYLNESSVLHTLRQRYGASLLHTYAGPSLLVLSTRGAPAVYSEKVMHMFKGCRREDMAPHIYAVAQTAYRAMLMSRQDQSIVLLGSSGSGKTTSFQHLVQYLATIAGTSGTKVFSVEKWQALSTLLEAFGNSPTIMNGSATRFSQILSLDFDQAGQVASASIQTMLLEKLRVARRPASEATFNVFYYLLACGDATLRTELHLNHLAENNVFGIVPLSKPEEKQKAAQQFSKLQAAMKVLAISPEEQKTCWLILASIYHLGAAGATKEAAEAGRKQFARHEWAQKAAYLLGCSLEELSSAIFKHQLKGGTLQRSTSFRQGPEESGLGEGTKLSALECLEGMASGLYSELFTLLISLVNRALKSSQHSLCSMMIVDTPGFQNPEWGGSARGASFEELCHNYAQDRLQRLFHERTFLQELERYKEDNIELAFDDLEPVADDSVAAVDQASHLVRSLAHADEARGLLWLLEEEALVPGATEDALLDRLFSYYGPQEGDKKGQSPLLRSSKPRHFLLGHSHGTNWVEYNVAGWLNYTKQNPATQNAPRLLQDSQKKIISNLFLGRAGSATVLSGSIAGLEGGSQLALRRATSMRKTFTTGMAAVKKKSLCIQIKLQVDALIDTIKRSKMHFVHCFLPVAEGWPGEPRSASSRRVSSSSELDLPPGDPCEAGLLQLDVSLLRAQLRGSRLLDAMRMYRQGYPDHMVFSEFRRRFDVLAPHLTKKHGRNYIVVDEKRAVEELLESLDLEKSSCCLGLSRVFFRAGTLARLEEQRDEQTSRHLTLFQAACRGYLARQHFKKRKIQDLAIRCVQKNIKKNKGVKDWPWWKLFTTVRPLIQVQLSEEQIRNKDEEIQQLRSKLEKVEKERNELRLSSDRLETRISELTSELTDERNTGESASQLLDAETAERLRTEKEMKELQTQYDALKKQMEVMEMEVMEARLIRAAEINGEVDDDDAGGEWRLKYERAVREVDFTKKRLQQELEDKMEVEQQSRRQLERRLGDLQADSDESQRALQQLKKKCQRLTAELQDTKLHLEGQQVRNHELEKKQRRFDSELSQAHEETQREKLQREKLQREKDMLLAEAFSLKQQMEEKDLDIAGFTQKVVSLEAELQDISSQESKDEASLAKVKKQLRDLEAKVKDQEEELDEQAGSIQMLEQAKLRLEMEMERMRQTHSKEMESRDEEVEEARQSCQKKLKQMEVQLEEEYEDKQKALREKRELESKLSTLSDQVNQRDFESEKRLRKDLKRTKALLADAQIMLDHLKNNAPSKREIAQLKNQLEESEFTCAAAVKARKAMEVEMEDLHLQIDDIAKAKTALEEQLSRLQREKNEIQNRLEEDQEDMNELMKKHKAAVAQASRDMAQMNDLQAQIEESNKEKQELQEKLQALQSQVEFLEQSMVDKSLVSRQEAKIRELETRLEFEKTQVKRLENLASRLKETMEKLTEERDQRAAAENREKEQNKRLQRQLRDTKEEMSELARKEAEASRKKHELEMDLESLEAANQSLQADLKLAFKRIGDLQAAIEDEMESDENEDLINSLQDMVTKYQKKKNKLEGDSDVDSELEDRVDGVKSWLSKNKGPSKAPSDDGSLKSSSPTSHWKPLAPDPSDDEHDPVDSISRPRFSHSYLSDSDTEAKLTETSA
UniProt Q08857: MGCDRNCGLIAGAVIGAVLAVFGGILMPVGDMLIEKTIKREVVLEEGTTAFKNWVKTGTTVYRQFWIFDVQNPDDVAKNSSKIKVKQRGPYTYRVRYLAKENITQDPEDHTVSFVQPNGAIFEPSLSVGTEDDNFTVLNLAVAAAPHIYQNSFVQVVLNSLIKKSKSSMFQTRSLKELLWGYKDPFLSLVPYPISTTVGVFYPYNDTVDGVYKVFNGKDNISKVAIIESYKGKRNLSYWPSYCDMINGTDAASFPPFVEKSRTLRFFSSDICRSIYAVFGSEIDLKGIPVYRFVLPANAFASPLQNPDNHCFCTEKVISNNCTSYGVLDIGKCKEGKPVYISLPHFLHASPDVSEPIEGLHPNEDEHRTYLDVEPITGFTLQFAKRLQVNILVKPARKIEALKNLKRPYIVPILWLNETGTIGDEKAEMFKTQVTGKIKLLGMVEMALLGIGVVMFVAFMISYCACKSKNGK

Substance | binding [1] | binding [2]
SP-R210L, long isoform of the surfactant protein A receptor SP-R210 (Myo18A) (from UniProt Q9JMH9-3 1-2050) | no binding | 
CD36 (from UniProt Q08857 1-472) (receptor) |  | no binding
